Test results from paper PMC12823440, “Inhibitors supercharge kinase turnover through native proteolytic circuits” (Nature, 2025).
Results are given in words; binding and its absence hold for the method and conditions named. Some results given as binding are weak or reduced against the parent protein; the word gives no strength.

By UniProt entry, the sequences of proteins in these tests, tags left out.
UniProt P07948: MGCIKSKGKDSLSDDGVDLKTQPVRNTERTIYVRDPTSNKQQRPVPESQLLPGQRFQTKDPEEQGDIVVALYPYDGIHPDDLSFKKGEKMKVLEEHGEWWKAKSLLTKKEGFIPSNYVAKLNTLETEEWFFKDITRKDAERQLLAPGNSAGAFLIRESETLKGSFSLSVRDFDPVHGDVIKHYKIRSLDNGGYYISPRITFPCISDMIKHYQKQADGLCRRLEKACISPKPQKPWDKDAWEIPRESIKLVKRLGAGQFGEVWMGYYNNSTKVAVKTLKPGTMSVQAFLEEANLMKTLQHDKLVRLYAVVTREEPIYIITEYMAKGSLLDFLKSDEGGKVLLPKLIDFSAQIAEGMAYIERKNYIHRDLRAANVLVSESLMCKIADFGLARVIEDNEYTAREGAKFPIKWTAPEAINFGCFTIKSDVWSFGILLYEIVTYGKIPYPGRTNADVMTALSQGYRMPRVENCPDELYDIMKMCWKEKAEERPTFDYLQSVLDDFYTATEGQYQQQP
UniProt P51451: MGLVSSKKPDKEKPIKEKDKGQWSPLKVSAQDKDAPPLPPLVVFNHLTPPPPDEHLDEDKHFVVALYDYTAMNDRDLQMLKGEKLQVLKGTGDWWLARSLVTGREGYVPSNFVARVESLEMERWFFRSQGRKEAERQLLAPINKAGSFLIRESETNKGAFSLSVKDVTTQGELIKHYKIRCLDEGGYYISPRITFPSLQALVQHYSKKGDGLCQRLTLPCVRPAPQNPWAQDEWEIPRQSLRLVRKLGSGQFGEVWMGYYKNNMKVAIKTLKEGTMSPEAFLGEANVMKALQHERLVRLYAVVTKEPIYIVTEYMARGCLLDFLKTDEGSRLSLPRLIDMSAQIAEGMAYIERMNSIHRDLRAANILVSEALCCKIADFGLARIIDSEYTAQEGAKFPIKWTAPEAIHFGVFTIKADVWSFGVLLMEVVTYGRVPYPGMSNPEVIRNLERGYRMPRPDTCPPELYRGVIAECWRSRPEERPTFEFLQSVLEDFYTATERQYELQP
UniProt Q13191: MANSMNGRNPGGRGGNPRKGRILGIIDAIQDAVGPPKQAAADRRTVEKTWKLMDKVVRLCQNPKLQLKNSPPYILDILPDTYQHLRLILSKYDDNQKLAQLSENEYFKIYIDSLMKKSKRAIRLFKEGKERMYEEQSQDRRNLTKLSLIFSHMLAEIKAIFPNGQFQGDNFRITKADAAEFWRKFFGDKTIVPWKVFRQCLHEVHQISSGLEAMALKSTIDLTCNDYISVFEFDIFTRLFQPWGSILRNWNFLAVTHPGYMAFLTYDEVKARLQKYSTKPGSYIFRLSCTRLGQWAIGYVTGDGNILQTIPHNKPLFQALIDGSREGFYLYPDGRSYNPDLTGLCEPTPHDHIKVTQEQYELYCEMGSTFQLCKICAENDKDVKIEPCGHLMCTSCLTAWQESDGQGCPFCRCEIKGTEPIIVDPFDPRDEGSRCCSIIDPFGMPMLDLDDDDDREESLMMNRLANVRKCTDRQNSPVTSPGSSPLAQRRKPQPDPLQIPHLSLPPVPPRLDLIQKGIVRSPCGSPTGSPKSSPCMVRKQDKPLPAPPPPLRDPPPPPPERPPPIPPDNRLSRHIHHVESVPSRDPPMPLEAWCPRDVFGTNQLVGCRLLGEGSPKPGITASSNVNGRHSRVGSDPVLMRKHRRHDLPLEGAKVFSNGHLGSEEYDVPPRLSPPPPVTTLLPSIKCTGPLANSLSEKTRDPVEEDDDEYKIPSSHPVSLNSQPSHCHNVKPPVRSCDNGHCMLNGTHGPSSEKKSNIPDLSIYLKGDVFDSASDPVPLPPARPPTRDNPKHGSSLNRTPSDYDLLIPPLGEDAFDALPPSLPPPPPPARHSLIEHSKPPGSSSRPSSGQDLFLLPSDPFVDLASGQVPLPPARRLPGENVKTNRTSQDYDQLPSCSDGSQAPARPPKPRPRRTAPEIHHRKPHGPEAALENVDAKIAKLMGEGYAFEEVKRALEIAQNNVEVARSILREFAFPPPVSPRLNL

Tests used:
[1] = target: LYN fused to 3×Flag-miniTurbo biotin ligase (human) (UniProt P07948); test: proximity labelling; BioID: LYN-miniTurbo in Flp-In T-REx 293, doxycycline 24 h, then SI-3 (156 nM) or DMSO with 100 µM biotin for 1 h; streptavidin enrichment, TMT mass spectrometry; SI-3 against DMSO and against GFP-mT controls
[2] = target: BLK fused to 3×Flag-miniTurbo biotin ligase (human) (UniProt P51451); test: proximity labelling; BioID: BLK-miniTurbo (and APH1A-miniTurbo) in KBM7, doxycycline 24 h, 100 µM biotin 1 h; baseline (DMSO) scored against GFP controls with SAINTq; streptavidin enrichment, TMT mass spectrometry

Substance | binding [1] | binding [2]
CBLB (from UniProt Q13191 1-982) | binds | 
NCSTN (from UniProt Q92542 34-709) |  | binds
